Experimental data taken from the supplement of paper PMC10973195.
± gives the standard deviation of the averaged measurements. This is one part of the list. These are raw signals, not scaled to a control.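 In this assay, LPS from bacteria induces microglia-mediated neuronal death in a neuron–microglia–astrocyte co-culture, a model of inflammatory neurodegeneration. Compounds were compared against same-plate DMSO vehicle wells, with the SYK inhibitor BAY61-3606 as reference neuroprotective control.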

These compounds were tested on rat primary cerebellar neuron-glia coculture (assay: live neuron count (NeuO+) per image field (cells per field); higher = more surviving neurons). Conditions: LPS 0 ng/mL; 1 µM; treatment time 3 days.
Experimental: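 Primary rat (P3-7) cerebellar neuron-glia cocultures in 384-well plates were treated at DIV7 with 1 uM compound, then with or without 100 ng/mL LPS 30 min later, for 3 days. At DIV10 live cells were stained with Hoechst 33342, NeuO (live neurons), IB4-AF594 (microglia) and DRAQ7 (necrotic cells) and imaged at 10x (4 fields per well, IN Cell Analyzer 6000). Cells were classified with Cellpose/CellProfiler plus a Random Trees classifier. Values are per-well mean counts per image field (raw, not min-max normalised) and the median microglial FormFactor per image. Three technical replicates per repeat across 4 biological repeats; DMSO and BAY61-3606 serve as controls.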

Point of comparison: `O=C(c1ccccc1)C(F)(F)F`, live neuron count 2610 ± 470. Against it:
- C=CCN(CC=C)CCc1c[nH]c2ccc(OC)cc12 — within error, 2590 ± 540
- O=C(NC1CN2CCC1CC2)c1cc(Br)cc2nc[nH]c12 (stereo not given) — within error, 2380 ± 700
- Cc1cccc([C@H](C)c2c[nH]cn2)c1C — within error, 2600 ± 490
- C[C@]12CC[C@H](O)C[C@H]1CC[C@@H]1[C@@H]2CC[C@]2(C)[C@@H](C3=CC(=O)OC3)CC[C@]12O — within error, 2670 ± 360
- CN(C)C(=O)Oc1ccc2cc(Br)ccc2c1Br — the same, 2610 ± 460
- Cn1c(CCCC(=O)O)nc2cc(N(CCCl)CCCl)ccc21 — within error, 2620 ± 750
- CN/C(=N\S(=O)(=O)c1ccc(Cl)cc1)N1CC(c2ccccc2)C(c2ccc(Cl)cc2)=N1 (stereo not given) — within error, 2570 ± 340
- O=[N+]([O-])/N=C1\NCCN1Cc1ccc(Cl)nc1 — within error, 2750 ± 530
- O=C1NC(=O)N(c2cccc3ccccc23)C(=O)/C1=C\c1c[nH]c2ccccc12 — within error, 2510 ± 460
- Clc1ccc(OC[C@H]2CCN2)cn1 — within error, 2680 ± 430
- C[N+]1(C)CCO[C@@](O)(c2ccc(-c3ccc([C@@]4(O)C[N+](C)(C)CCO4)cc3)cc2)C1 — within error, 2620 ± 530
- Clc1ccc2c(c1Cl)CNCC2 — within error, 2660 ± 520
- N#Cc1nn(-c2c(Cl)cc(C(F)(F)F)cc2Cl)c(N)c1[S+]([O-])C(F)(F)F (stereo not given) — within error, 1910 ± 440
- C[C@@H]1CN([C@H]2CC[C@](C#N)(c3ccc(F)cc3)CC2)CC[C@]1(C(=O)O)c1ccccc1 — the same, 2610 ± 410
- O=C1CCCC2[C@H]3CNC[C@H](C3)CN12 (stereo not given in full) — within error, 2680 ± 460
- C=C(C)[C@H]1Cc2c(ccc3c2O[C@@H]2COc4cc(OC)c(OC)cc4[C@@H]2C3=O)O1 — lower, 99.7 ± 36
- OC1(c2ccc(Cl)cc2)c2ccccc2C2=NCCN21 (stereo not given) — within error, 1790 ± 610
- c1ccc(CCCN2CCN(CCOC(c3ccccc3)c3ccccc3)CC2)cc1 — lower, 757 ± 320
- CCNC(=O)C[C@@H]1N=C(c2ccc(Cl)cc2)c2cc(OC)ccc2-n2c(C)nnc21 — within error, 2380 ± 470

Same assay, conditions: LPS 100 ng/mL; 1 µM; treatment time 3 days

Point of comparison: `N#Cc1nn(-c2c(Cl)cc(C(F)(F)F)cc2Cl)c(N)c1[S+]([O-])C(F)(F)F` (stereo not given), live neuron count 492 ± 510. Against it:
- C=CCN(CC=C)CCc1c[nH]c2ccc(OC)cc12 — within error, 266 ± 240
- O=C(NC1CN2CCC1CC2)c1cc(Br)cc2nc[nH]c12 (stereo not given) — within error, 346 ± 260
- Cc1cccc([C@H](C)c2c[nH]cn2)c1C — within error, 514 ± 720
- C[C@]12CC[C@H](O)C[C@H]1CC[C@@H]1[C@@H]2CC[C@]2(C)[C@@H](C3=CC(=O)OC3)CC[C@]12O — within error, 360 ± 420
- CN(C)C(=O)Oc1ccc2cc(Br)ccc2c1Br — within error, 350 ± 300
- Cn1c(CCCC(=O)O)nc2cc(N(CCCl)CCCl)ccc21 — within error, 449 ± 720
- CN/C(=N\S(=O)(=O)c1ccc(Cl)cc1)N1CC(c2ccccc2)C(c2ccc(Cl)cc2)=N1 (stereo not given) — within error, 359 ± 590
- O=[N+]([O-])/N=C1\NCCN1Cc1ccc(Cl)nc1 — within error, 307 ± 310
- O=C1NC(=O)N(c2cccc3ccccc23)C(=O)/C1=C\c1c[nH]c2ccccc12 — within error, 421 ± 350
- Clc1ccc(OC[C@H]2CCN2)cn1 — within error, 333 ± 270
- C[N+]1(C)CCO[C@@](O)(c2ccc(-c3ccc([C@@]4(O)C[N+](C)(C)CCO4)cc3)cc2)C1 — within error, 234 ± 230
- Clc1ccc2c(c1Cl)CNCC2 — within error, 372 ± 580
- O=C(c1ccccc1)C(F)(F)F — within error, 318 ± 330
- C[C@@H]1CN([C@H]2CC[C@](C#N)(c3ccc(F)cc3)CC2)CC[C@]1(C(=O)O)c1ccccc1 — within error, 274 ± 350
- O=C1CCCC2[C@H]3CNC[C@H](C3)CN12 (stereo not given in full) — within error, 593 ± 650
- C=C(C)[C@H]1Cc2c(ccc3c2O[C@@H]2COc4cc(OC)c(OC)cc4[C@@H]2C3=O)O1 — within error, 177 ± 93
- OC1(c2ccc(Cl)cc2)c2ccccc2C2=NCCN21 (stereo not given) — within error, 762 ± 540
- c1ccc(CCCN2CCN(CCOC(c3ccccc3)c3ccccc3)CC2)cc1 — within error, 189 ± 160
- CCNC(=O)C[C@@H]1N=C(c2ccc(Cl)cc2)c2cc(OC)ccc2-n2c(C)nnc21 — higher, 2000 ± 730
